PMC7819943, “Rice protein-binding microarrays: a tool to detect cis-acting elements near promoter regions in rice”
The other results are listed elsewhere or left out.

Sequences of proteins named here, by UniProt entry; tags and fusion partners are left off.
UniProt Q0JBA9, entry or part of it: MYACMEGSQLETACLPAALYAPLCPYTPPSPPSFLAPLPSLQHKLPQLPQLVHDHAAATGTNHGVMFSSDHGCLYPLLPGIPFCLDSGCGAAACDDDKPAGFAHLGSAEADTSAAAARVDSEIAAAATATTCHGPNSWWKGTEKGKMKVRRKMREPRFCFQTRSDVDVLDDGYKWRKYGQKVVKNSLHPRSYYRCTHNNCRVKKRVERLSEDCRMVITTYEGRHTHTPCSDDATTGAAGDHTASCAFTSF

Target: OsWRKY34 (Oryza sativa, UniProt Q0JBA9 1-250)
Test: protein-binding microarray (RPBM); PBS, 2% BSA, 51.3 ng/ul salmon testes DNA, 50 uM zinc acetate, 200 nM TF, 25 C, 1 h; high values mean tight binding
Conditions: protein: recombinant; tags: N-terminal polyhistidine and DsRed monomer fusion (pET32a); label: CyDye5-dUTP incorporated in the synthesized complementary strand; 3' TTTTT single-stranded linker to array surface; dsDNA, one strand shown
Summary of the method: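 Binding signal is defined as the fluorescence intensity of each feature in arbitrary units, read on an Axon 4000B scanner. Transcription factors with N-terminal polyhistidine and DsRed fusions came from E. coli BL21-CodonPlus and were purified on Ni–NTA. They were incubated at 200 nM for 1 h at 25 °C on a custom Agilent array that had been made double-stranded with Cy5-dUTP, with 50 µM zinc acetate present, and the array was washed.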

Compared with “CACCGTGCCTGCCGCCGGCGACTTGACGAGTCCGACCACTCGGAGTCACCTAGTGCAG”, “CCGCCGCCGCCTCCGCCTGAAGTGTGGGCCCATCTCGTACCGGAGTCACCTAGTGCAG” is higher in binding signal: 8300 fluorescence intensity (a.u.) for the first, 8320 fluorescence intensity (a.u.) for the second.

Going from “TGTTTAAGTTTGGTGATTTCAATTCTGACCTGTAAATTGTCGGAGTCACCTAGTGCAG” to “TTGTGTGTGTGTATCCCCTGTGACACAGTCGTAATCGATGCGGAGTCACCTAGTGCAG”, the binding signal rises from 8060 fluorescence intensity (a.u.) to 10800 fluorescence intensity (a.u.).

Going from “CTACGTCGCCTTGCTCTTGCCCTCCTCTTATCCTGCGCCGCGGAGTCACCTAGTGCAG” to “GATCTCCATCTCCATCTCTCTCTCTCTCTCGAGCAGAGCACGGAGTCACCTAGTGCAG”, the binding signal rises from 8060 fluorescence intensity (a.u.) to 8360 fluorescence intensity (a.u.).

First: ACCAACAACTACTAATGTCAACGTCTCACATTATACAACTCGGAGTCACCTAGTGCAG
Second: CCTAATATTGTGTGCAGAACCATCGCCTTGGATCATCCTTCGGAGTCACCTAGTGCAG
The binding signal of the first is higher: 9030 fluorescence intensity (a.u.) for the first, 8580 fluorescence intensity (a.u.) for the second.

Going from “CGATTGCCAGTTTGCCACCCATCTCACCAGACCACAATTCCGGAGTCACCTAGTGCAG” to “CCATTAGATGATAAAATTTTACCTGCTTTTGTAGCTTCTACGGAGTCACCTAGTGCAG”, the binding signal falls from 13000 fluorescence intensity (a.u.) to 8310 fluorescence intensity (a.u.).

Compared with “ATTTCGCCATTGCACCACACCATTTGCATTGCACCAAGAGCGGAGTCACCTAGTGCAG”, “GTCTAATGAAGTTACCTCTTTCATAAACTTTTGTTTATTTCGGAGTCACCTAGTGCAG” is lower in binding signal: 11300 fluorescence intensity (a.u.) for the first, 8060 fluorescence intensity (a.u.) for the second.

Going from “ACAAACTTCTAACTTTTTCGTCGCATCGTTCCAATTTCAACGGAGTCACCTAGTGCAG” to “TATCCTGTTACTTTTGCTTGACCTGATGTAATGGACGTAGCGGAGTCACCTAGTGCAG”, the binding signal falls from 9680 fluorescence intensity (a.u.) to 8840 fluorescence intensity (a.u.).

Compared with “GTATTCCTGGCGTGGTTGAGTCAGTGTGTGTGTGTCGTGCCGGAGTCACCTAGTGCAG”, “TGTGGCTGTGTTGTGCGACTACCTTGGTCCTTCCTGATTACGGAGTCACCTAGTGCAG” is lower in binding signal: 8500 fluorescence intensity (a.u.) for the first, 8400 fluorescence intensity (a.u.) for the second.

Compared with “CTAACGCGCTCGCTTCCTTCCCGCCTCGCCTCAACGCAAACGGAGTCACCTAGTGCAG”, “AGCACATAGCTAGTTAGCCACATATTATTTGATCACTAAACGGAGTCACCTAGTGCAG” is lower in binding signal: 9770 fluorescence intensity (a.u.) for the first, 8980 fluorescence intensity (a.u.) for the second.

First: GATAATTCTTATGTTACTGACTAATATGATAGTACTGAGTCGGAGTCACCTAGTGCAG
Second: TATATTTTGTCATTCTCTCTAAATGTTTTTGATGATTTTCCGGAGTCACCTAGTGCAG
The binding signal of the first is lower: 8140 fluorescence intensity (a.u.) for the first, 10600 fluorescence intensity (a.u.) for the second.

Going from “CTTTCTTTCACGTGATGACTTTTTGGTTGGACTTTCCACCCGGAGTCACCTAGTGCAG” to “GTAGCTCTGTTGTTCGGTTGTTCTGCTCAATGGCCGCTCGCGGAGTCACCTAGTGCAG”, the binding signal falls from 8740 fluorescence intensity (a.u.) to 8050 fluorescence intensity (a.u.).

“AATGGGCTAATGGGCCTCCAAATTGTATTATATGGGCTTTCGGAGTCACCTAGTGCAG” was tested, and the binding signal was 8220 fluorescence intensity (a.u.).
